Results on one molecule are retold here after publication PMC2633459 (Molecular Vision, 2009).

The experiment concerns the target T1, wild type human βB1-crystallin (human, UniProt P53674 1-252).
T1 construct: human βB1-crystallin, wild type, recombinant; Mixture of monomers and dimers at the concentrations of the 1:1 experiments; dimer at the higher concentration of the 5:1 experiment; source: E. coli, purified (successive ion-exchange chromatography)
T1 sequence (looked up): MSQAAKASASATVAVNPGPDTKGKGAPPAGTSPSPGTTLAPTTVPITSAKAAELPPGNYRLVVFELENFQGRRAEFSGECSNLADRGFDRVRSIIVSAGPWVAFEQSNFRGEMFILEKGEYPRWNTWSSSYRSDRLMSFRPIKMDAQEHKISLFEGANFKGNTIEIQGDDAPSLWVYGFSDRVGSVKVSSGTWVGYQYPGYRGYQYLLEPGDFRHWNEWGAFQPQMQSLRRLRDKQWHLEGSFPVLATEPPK
Kind of experiment: SEC-MALS; 1:1 molar ratio, mixture subjected to SEC-MALS immediately upon mixing (0 min); same buffer; both purified. (In gel filtration, larger molecules generally elute earlier.)

No constants are given. Whether binding was seen depends on the method and setting.

B1: doubly deamidated mutant βA3 Q85E/Q180E (natural protein, human, UniProt P05813 1-215, looked up)
chain: METQAEQQELETLPTTKMAQTNPTPGSLGPWKITIYDQENFQGKRMEFTSSCPNVSERSFDNVRSLKVESGAWIGYEHTSFCGQEFILERGEYPRWDAWSGSNAYHIERLMSFRPICSANHKESKMTIFEKENFIGRQWEISDDYPSLQAMGWFNNEVGSMKIQSGAWVCYQYPGYRGYEYILECDHHGGDYKHWREWGSHAQTSQIQSIRRIQQ
notes: human βA3-crystallin with Q85E and Q180E (mimic of deamidation), recombinant; Homo-dimer by SEC-MALS at 37 °C; precipitates at 55 °C when alone; also called DM βA3; βA3 DM; source: E. coli, purified (successive ion-exchange chromatography)
For the molecule B1, the binding result was “no binding (condition: immediately upon mixing (0 min))”.
